# Patent US20060247165A1, “Methods and compositions for encapsulation of cells” (priority 2005, published 2006)
# Some results were stated once for a whole list of compounds, not compound by compound. Not every detail of the peptide structures is certain; ends, links or a residue may be inferred. Residues, ends and D or L forms follow the SMILES beside them. *: point of attachment. Butanoyl(4-pyren-1-yl) = O=C(CCCc1ccc2ccc3cccc4ccc1c2c34)*
# Assay: Gelation and rheology of peptide amphiphiles
# Assay type: physicochemical
# Settings: with addition of DMEM; 4.22 Hz, 3% strain
compound,measurement,value
CC[C@H](C)[C@H](NC(=O)[C@H](CCC(=O)O)NC(=O)[C@H](C)NC(=O)[C@H](C)NC(=O)[C@H](C)NC(=O)[C@H](CC(C)C)NC(=O)[C@H](CO)NC(=O)[C@H](CC(C)C)NC(=O)[C@H](CO)NC(=O)CCCc1ccc2ccc3cccc4ccc1c2c34)C(=O)N[C@@H](CCCCN)C(=O)N[C@H](C(=O)N[C@@H](C)C(=O)N[C@H](C(=O)O)C(C)C)C(C)C [PA2] ({Butanoyl(4-pyren-1-yl)}-SLSLAAAEIKVAV-OH),damping factor (G″/G′),< 0.2
